# From PubChem BioAssay AID504444 (National Center for Advancing Translational Sciences (NCATS), 2011)
# Screen size: about 360,000 compounds; about 7,500 (2.1%) were called active. Inconclusive results, whose numbers are uncertain, are shown with a selection of clear calls. The call rests on the fitted dose curve; in most records, active means well fitted inhibition curve with a large enough effect; inconclusive means small, poorly fitted or top-dose-only effect, or effect the other way; inactive means flat fitted curve, though single readings scatter. Where the call is inconclusive, the potency comes from a doubtful curve fit.
# Test: Nrf2 qHTS screen for inhibitors; further: nearly all actives have a fitted effect of over 60% in size
# Details: A549 ARE-Fluc reporter, luciferase luminescence, 18-24 h; series mostly up to 46 µM
# In short: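 Nrf2 function is reported as luminescence of an ARE-controlled luciferase in A549 cells. Compounds were tested at several concentrations, and a CellTiter-Fluor read on the same wells flagged cytotoxicity.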
# Potency means the concentration at half of the fitted maximal effect.
row,SMILES,Potency
1,Cc1ccc(C(=O)NCC(=O)OCc2nnc(-c3ccccc3)o2)cc1,"inconclusive: 8.2 µM [activator, partial curve, poor fit]"
2,CCCNC(=O)c1noc2c1CCc1cc(OC)ccc1-2,"inconclusive: 29.1 µM [activator, single point]"
3,CC1Cc2ccccc2N1C(=O)CSc1nc(-c2ccccc2)cs1 (stereo unspecified),"inconclusive: 29.1 µM [falling, single point]"
4,CCSc1nnc(NC(=O)CSC2=NCCS2)s1,"inconclusive: 3.66 µM [falling, single point]"
5,Cc1noc(/C=C/c2ccco2)c1S(=O)(=O)N1CCC(C(=O)Nc2ccc(F)cc2F)CC1,inactive
6,Brc1c(-c2ccccc2)nc2n1Cc1ccccc1-2,"inconclusive: 9.2 µM [activator, partial curve]"
7,CN1CCN(/N=C/c2ccc(Cl)c(Cl)c2)CC1,"inconclusive: 1.3 µM [activator, full curve, poor fit]"
8,Fc1ccc(NCc2cn3ccccc3n2)cc1,"inconclusive: 2.31 µM [activator, full curve]"
9,CCCCN(Cc1ccccc1)C(=O)CN(C)S(=O)(=O)c1ccc2c(c1)c(=O)n(C)c(=O)n2C,inactive
10,Cc1ccc(S(=O)(=O)NCC2CCC(C(=O)NCCCN3CCCC3=O)CC2)cc1 (stereo unspecified),inactive
11,Cc1ccc(C(=O)NC2CCC(C)CC2)s1 (stereo unspecified),"inconclusive: 0.58 µM [activator, full curve]"
12,COc1ccccc1C(=O)NCC(=O)N/N=C/c1cc(Br)ccc1OC(=O)/C=C\c1ccco1,"inconclusive: 6.51 µM [activator, single point]"
13,Cc1ccc(OC(C)C(=O)N(Cc2cccs2)C2CCS(=O)(=O)C2)cc1C (stereo unspecified),"inconclusive: 11.6 µM [activator, partial curve, poor fit]"
14,Cc1ccc(Cn2c(C(C)Nc3nc(-c4ccc(C)cc4)cs3)nc3cc(Cl)c(Cl)cc32)cc1 (stereo unspecified),"inconclusive: 0.184 µM [activator, full curve, poor fit]"
15,O=C(Nc1nc(-c2cccc([N+](=O)[O-])c2)cs1)C(c1ccccc1)c1ccccc1,active: 14.6 µM
16,COc1cc(C(=O)Nc2sc3c(c2C(=O)O)CCC3)cc(OC)c1OC,"inconclusive: 29.1 µM [falling, single point]"
17,COc1ccc(Br)cc1Cn1nnc(C(=O)Nc2ccc3c(c2)OCCO3)c1N,"inconclusive: 20.6 µM [falling, single point]"
18,CCC(C)NC(=O)Cn1ncc2c(C)n(Cc3ccc(F)cc3)c(C)c2c1=O (stereo unspecified),"inconclusive: 16.4 µM [activator, single point]"
19,O=C(NC1CCCC1)c1cc2c(ccc3ccccc32)o1,"inconclusive: 11.6 µM [activator, partial curve]"
20,O=C(O)c1ccc(N/N=C/c2ccc(-c3cc(Cl)ccc3Cl)o2)cc1,"inconclusive: 6.51 µM [activator, partial curve]"
21,Cc1ccc2c(CNCc3cccs3)c(C(=O)O)n(Cc3ccc(F)cc3)c2c1,inactive
22,COC(=O)c1ccc(Cn2c(=O)cc(C)c3c(C)nn(C)c32)cc1,"inconclusive: 13 µM [falling, partial curve, poor fit]"

row,SMILES,Potency
1,CN(C)c1ccc(-c2ccc(C3C4C=CCCC4(C)C(=O)N3Cc3ccccc3)c(F)c2)cc1 (stereo unspecified),"inconclusive: 16.4 µM [falling, single point]"
2,COc1cc(OC)c(NC2=CC(=O)C(=O)c3ccccc32)cc1Cl,"inconclusive: 29.1 µM [falling, single point]"
3,COc1cccc2sc(N3CCN(C(=O)c4ccc([N+](=O)[O-])o4)CC3)nc12,"inconclusive: 20.6 µM [falling, single point]"
4,CCOC(=O)c1c(NC(=O)C(C)S(=O)(=O)c2cn(CC)c3ccccc23)sc2c1CCCC2 (stereo unspecified),"inconclusive: 0.0046 µM [falling, full curve, poor fit]"
5,CC12CCC=CC1C(c1ccc3ccccc3c1C=Cc1ccccc1)N(Cc1ccccc1)C2=O (stereo unspecified),inactive
6,N#C/C(=C/c1ccc(N2CCCCC2)cc1)c1cccc(F)c1,"inconclusive: 2.91 µM [activator, full curve]"
7,CCN(C[C@H]1N[C@@](Cc2ccccc2)(C(=O)OC)[C@H]2C(=O)N(Cc3ccccc3)C(=O)[C@@H]12)C(=O)COc1ccccc1,"inconclusive: 25.9 µM [falling, single point]"
8,Cc1ccc(C2=N/C(=C\N(C)C)C(=O)O2)cc1,"inconclusive: 13 µM [activator, single point]"
9,COc1ccc(NS(=O)(=O)c2ccc3c(c2)CCN3C(=O)C2CC2)cc1OC,"inconclusive: 23.1 µM [falling, partial curve, poor fit]"
10,O=S(=O)(c1cccc(C(F)(F)F)c1)N1CCC(c2nc3ccccc3[nH]2)CC1,"inconclusive: 23.1 µM [falling, single point]"
11,Cc1cccc(CN2CCc3c(OCC(=O)N4CCCc5ccccc54)cccc3C2=O)c1,"inconclusive: 29.1 µM [falling, single point]"
12,COc1ccccc1C(=O)NCCn1cc(SCC(=O)NCc2ccco2)c2ccccc21,"inconclusive: 23.1 µM [falling, single point]"
13,CCOc1cc(-c2nc(-c3ccccc3)c(-c3cc([N+](=O)[O-])ccc3C)[nH]2)ccc1O,"inconclusive: 25.9 µM [falling, single point]"
14,COC(CNC(=O)C(=O)Nc1cc2c3c(c1)CCN3C(=O)CC2)OC,inactive
15,Cc1[nH]nc2ncc(C(=O)c3cc(F)ccc3O)cc12,"inconclusive: 29.1 µM [falling, single point]"
16,COc1cccc(CNC(=O)Cn2c(=O)c3cccn3c3ccc(F)cc32)c1OC,"inconclusive: 9.2 µM [activator, partial curve, poor fit]"
17,CC(C)(C)SCCNC(=O)c1ccc(CN2CCc3ccccc3C2)cc1,"inconclusive: 29.1 µM [falling, single point]"
18,Cc1nnc(SCC(=O)Nc2ccc3c(c2)OCO3)n(N)c1=O,inactive
19,CC(=O)N[C@H]1[C@H](Oc2ccc3c(c2)CCC2C3CC[C@]3(C)C(=O)CCC23)O[C@H](CO)[C@@H](O)[C@@H]1O (stereo partly specified),"inconclusive: 23.1 µM [falling, partial curve, poor fit]"
20,Cc1ccc(-n2ccc(=O)c(C(=O)Nc3ccc(S(=O)(=O)Nc4onc(C)c4C)cc3)n2)cc1,inactive
21,CCn1c(C(=O)NCCCc2ccccc2)cc2sccc21,"inconclusive: 7.31 µM [activator, partial curve, poor fit]"
22,CN1C(C)(C)c2ccccc2OS1(=O)=O,"inconclusive: 9.2 µM [activator, partial curve, poor fit]"

row,SMILES,Potency
1,Cc1cc(C(=O)OCC(=O)Nc2ccc(F)c(F)c2F)c(C)o1,"inconclusive: 5.8 µM [falling, partial curve]"
2,CC(C)c1ccc(/C=N/NC(=O)c2c(Cl)cnn2C)cc1,"inconclusive: 6.51 µM [activator, single point]"
3,COc1ccc(/C=C/C(O)=C2/C(=O)N(C)C3(C)CC2c2ccccc2O3)cc1 (stereo unspecified),active: 29.1 µM
4,Cc1cc(C)cc(OCC(=O)N/N=C/c2ccccn2)c1,"inconclusive: 13 µM [falling, single point]"
5,CCOC(=O)c1ccc(NC(=O)c2sc3nc(N4CCOCC4)c4c(c3c2N)CCCC4)cc1,"inconclusive: 23.1 µM [falling, partial curve, poor fit]"
6,Cc1ccc(-c2noc(CCC(=O)Nc3ccc(F)cc3Cl)n2)cc1,inactive
7,Cc1nc2sc(-c3ccccc3)cc2c(=O)n1N,"inconclusive: 16.4 µM [falling, single point]"
8,Cc1nn(C)c2c1c(-c1ccccc1)cc(=O)n2Cc1ccccc1F,inactive
9,CCc1ccc(C(C)NC(=S)NC2CCCCC2)cc1 (stereo unspecified),"inconclusive: 25.9 µM [falling, single point]"
10,COc1ccc(NC(=O)c2cccc(N3CCCS3(=O)=O)c2)cc1,"inconclusive: 0.651 µM [falling, full curve, poor fit]"
11,NC(=O)CSc1ncc2c(n1)-c1ccccc1N(Cc1ccccc1)S2(=O)=O,"inconclusive: 11.6 µM [activator, partial curve, poor fit]"
12,Cc1cccc(C(=O)NC(=S)Nc2ccccc2C(=O)O)c1,inactive
13,CCc1cc(C(=O)N2CCCC(N3CCN(c4cccc(C(F)(F)F)c4)CC3)C2)n(C)n1 (stereo unspecified),active: 8.2 µM
14,CC(C1CCN(Cc2nc(C3CC3)no2)CC1)N1CCOCC1 (stereo unspecified),"inconclusive: 25.9 µM [falling, partial curve]"
15,COc1cccc(/C=C2/SC(=S)N(CCCC(=O)Nc3ccc(O)cc3)C2=O)c1,"inconclusive: 25.9 µM [falling, single point]"
16,O=C(O)Cc1ccc(NC(=O)COc2ccc3ccccc3c2)cc1,inactive
17,Cc1oc2c(c1C(=O)c1ccc(Cl)cc1)C(=O)C(=O)c1ccccc1-2,inactive
18,COc1cc(OC)c(OC)cc1CN1CCN(Cc2ccc(SC)cc2)CC1,inactive
19,Clc1ccccc1-c1nn2c(-c3cc(-c4ccccc4)n[nH]3)nnc2s1,active: 23.1 µM
20,Cc1cc(C)cc(N2C(=O)CS(=O)(=O)C23C(=O)N(Cc2ccc(F)cc2)c2ccc(C)cc23)c1 (stereo unspecified),"inconclusive: 29.1 µM [activator, single point]"
21,CCOc1cc(C)c(S(=O)(=O)NCCCn2ccnc2)cc1C,"inconclusive: 14.6 µM [falling, partial curve]"
22,Cc1ccc(-c2c(C(=O)N/N=C/c3sccc3C)nnn2-c2nonc2N)cc1,"inconclusive: 23.1 µM [falling, single point]"

# Gathered by group: the compounds so far containing bromine.
row,SMILES,Potency
6,Brc1c(-c2ccccc2)nc2n1Cc1ccccc1-2,"inconclusive: 9.2 µM [activator, partial curve]"
12,COc1ccccc1C(=O)NCC(=O)N/N=C/c1cc(Br)ccc1OC(=O)/C=C\c1ccco1,"inconclusive: 6.51 µM [activator, single point]"
17,COc1ccc(Br)cc1Cn1nnc(C(=O)Nc2ccc3c(c2)OCCO3)c1N,"inconclusive: 20.6 µM [falling, single point]"
